# Data as given in PubChem BioAssay AID1347076 (National Center for Advancing Translational Sciences (NCATS), 2019).
# “And” between values parts separate entries of the source, which are not always exact repeats. Equal values may be shown once. In all, about 400,000 compounds went through this assay and about 13,000 (3.2%) were called active. Inconclusive means that the source gave no clear call. Such entries were picked first, then a sample of the others. Calls follow the shape of the dose curve; as a rule, active = well fitted cell-killing curve with a large enough effect; inconclusive = small, poorly fitted or top-dose-only effect, or effect the other way; inactive = flat fitted curve, though single readings scatter. A potency beside an inconclusive call is a rough fit, not a confirmed value.
# Experiment: qHTS assay for MDR1-selective chemotherapeutics: Primary screen using the drug-selected MDR subline cells KB-V1; also: nearly all actives have a fitted effect of over 60% in size
# Settings: KB-V1 MDR cells viability, CellTiter-Glo, 72 h; series mostly up to 46.1 µM
# Method in brief: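 In this primary screen, KB-V1 cells overexpressing P-gp are incubated with library compounds (lowest to highest concentration) for 72 h at 37 degrees C before a luminescent ATP viability read.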
# Potency is read from the fitted curve at half-maximal effect.
row,Compound,Potency
1,CCN(CC(=O)NCc1cccs1)C(=O)CCCOc1ccc(C(C)(C)C)cc1,active: 20.6 µM
2,O=C(NC1CCCC1)C(c1ccncc1)N(C(=O)Cc1cccs1)c1ccc(F)cc1 (stereo unspecified),"inconclusive: 8.2 µM [cytotoxic, partial curve]"
3,CS(=O)(=O)c1ccc(Cl)c(NC(=O)COC(=O)c2cccc(S(=O)(=O)N3CCCC3)c2)c1,"inconclusive: 29.1 µM [rising, single point]"
4,COc1ccc(-c2ccc3ncnc(N(C)Cc4csc(C)n4)c3c2)cc1OC,inactive
5,CCOC(=O)c1nc2ccc(C)cc2c2c1C1CC(c3c(Cl)cccc31)N2C(=O)OCc1ccccc1 (stereo unspecified),"inconclusive: 18.4 µM [cytotoxic, single point]"
6,CCOC(=O)c1ccc(NC(=O)CSc2nc3c(c(=O)n2-c2ccccc2OC)SCC3)cc1,inactive
7,COc1ccccc1C(=O)N/C(=C/c1ccc(Br)cc1)C(=O)N1CCOCC1,"inconclusive: 23.1 µM [cytotoxic, single point]"
8,CCCNC(=O)c1cc(C2CCCCN2C(=O)c2cc(C(C)(C)C)nn2C)on1 (stereo unspecified),active: 16.4 µM
9,COCCNC(=O)CN1CCN(C(c2ccccc2)c2ccccc2)CC1,"inconclusive: 25.9 µM [cytotoxic, single point]"
10,O=C(c1ccc(OC2CCN(CCCc3ccccc3)CC2)cc1)N1CCCC1,inactive
11,CCn1c2ccccc2c2cc(Nc3cc(C)nc4ncnn34)ccc21,"inconclusive: 0.0058 µM [cytotoxic, full curve, poor fit]"
12,COCCNC(=O)/C(C#N)=C/c1cc(C)n(C2CCCCC2)c1C,"inconclusive: 8.2 µM [cytotoxic, partial curve, poor fit]"
13,C=CCn1c(SCC(=O)N2CCCCCC2)nc2ccccc2c1=O,inactive
14,COc1ccc(NC(=O)Cn2c(=O)n(Cc3ccccc3Cl)c(=O)c3cc(OC)c(OC)cc32)cc1,inactive
15,CCOc1ccccc1C(=O)N(Cc1ccccc1)Cc1cc2cc3c(cc2[nH]c1=O)OCCO3,"inconclusive: 20.6 µM [cytotoxic, single point]"
16,COC(=O)c1ccccc1NC(=O)CN(c1ccc(OC)cc1)S(C)(=O)=O,"inconclusive: 23.1 µM [cytotoxic, single point]"
17,COc1ccccc1C(=O)Nc1ccc2oc(-c3ccc(F)cc3)nc2c1,"inconclusive: 23.1 µM [cytotoxic, partial curve, poor fit]"
18,Cc1ccc(O)c(C(=O)CC(=O)c2cccc(F)c2)c1,"inconclusive: 29.1 µM [cytotoxic, single point]"
19,CS(=O)(=O)c1cnc(-c2ccccc2)nc1-c1ccc(Cl)c(Cl)c1,"inconclusive: 29.1 µM [cytotoxic, single point]"
20,COc1ccc(-c2csc(NC(=S)NC(=O)c3ccco3)n2)cc1Br,"inconclusive: 29.1 µM [cytotoxic, single point]"
21,COc1cc2c(cc1OC)CN(C(=O)COc1ccccc1C#N)CC2,inactive
22,CC1=C(C(=O)Nc2ccccn2)C(c2ccc(Cl)cc2Cl)NC(=S)N1 (stereo unspecified),"inconclusive: 20.6 µM [cytotoxic, partial curve, poor fit]"
23,CCn1c(SCC(=O)Nc2ccccc2C(=O)OC)nnc1-c1cccc(C)c1,"inconclusive: 10.3 µM [cytotoxic, partial curve]"
24,COC(=O)[C@@]1(Cc2ccc(F)cc2)[C@H]2c3cc(C(=O)N(C)C)n(Cc4cc(F)cc5c4OCOC5)c3C[C@H]2CN1C(=O)c1ccccc1,"inconclusive: 16.4 µM [cytotoxic, partial curve, poor fit]"

row,Compound,Potency
1,COc1ccc(NC(=O)Cn2c(=O)n(Cc3ccco3)c(=O)c3sc4ccccc4c32)cc1Cl,inactive
2,Cn1c(=O)cc(OCCCC(=O)NCc2ccco2)c2ccccc21,"inconclusive: 23.1 µM [cytotoxic, partial curve]"
3,O=C(Nc1nc(-c2ccccn2)cs1)c1cccc(-n2cnnn2)c1,"inconclusive: 0.517 µM [cytotoxic, partial curve, poor fit]"
4,Cc1[nH]c(=O)sc1C(=O)NCc1ccc([N+](=O)[O-])cc1,inactive
5,O=C(NCc1cc(Cl)cc(Cl)c1)c1ccc2nc([C@@H]3O[C@H](CO)[C@@H](O)[C@H]3O)[nH]c2c1,inactive
6,COc1cc(C=NO)nc(-c2ccccn2)c1,inactive
7,COc1ccc(CC(=O)Oc2cc(C)[nH]c(=O)c2[N+](=O)[O-])cc1,"inconclusive: 32.6 µM [rising, single point]"
8,CN(Cc1ccccc1)C(=O)c1csc([C@@H]2O[C@H](CO)[C@H](O)[C@H](O)[C@H]2O)n1,inactive
9,CNC(=O)NCC12CC3CC(CC(C3)C1)C2,inactive
10,Cc1ccc(C(=O)NCc2ccc(Cl)cc2)cc1S(=O)(=O)N1CCCCC1,active: 18.4 µM
11,CCC(C)Sc1cccc(-c2nc3ccc(C)cn3c2NCc2ccccc2)c1 (stereo unspecified),"active: 18.4 µM and inconclusive: 16.4 µM [cytotoxic, single point]"
12,Cc1ccc(S(=O)(=O)N[C@H](C(=O)NCC2CCC(C(=O)O)CC2)C(C)C)cc1 (stereo partly specified),inactive
13,CCC(CC)C(=O)Nc1cccc(C(=O)Nc2ccc(OC)cc2[N+](=O)[O-])c1,"inconclusive: 2.06 µM [cytotoxic, full curve, poor fit]"
14,O=C(NC1CCCC1)c1ccc2c(c1)N(Cc1ccccc1)CCS2,"inconclusive: 20.6 µM [cytotoxic, partial curve, poor fit]"
15,O=C(CCN1C(=O)c2ccccc2S1(=O)=O)NCc1ccccc1Cl,inactive
16,CC(C(=O)NCc1ccccc1)n1ccc2cc(S(=O)(=O)N3CCCC3)ccc21 (stereo unspecified),inactive
17,Cc1ccc(O)c(NC(=O)c2noc3c2CCc2ccccc2-3)c1,inactive
18,Cc1csc(NC(=O)CSc2nc3ccccc3c3c2CCCC3)n1,"inconclusive: 23.1 µM [cytotoxic, single point]"
19,CCSC1=NC2(CCN(C(=O)NC3CCCCC3)CC2)N=C1c1ccc(OC)cc1,inactive
20,CN(Cc1ccccc1)C(=O)c1ccccc1NC(=O)c1ccco1,"inconclusive: 10.3 µM [cytotoxic, partial curve]"
21,Cc1onc(-c2c(Cl)cccc2Cl)c1C(=O)N1CCc2ccccc2C1,active: 20.6 µM
22,C[C@H]1CN([C@@H](C)CO)S(=O)(=O)c2ccc(Br)cc2O[C@H]1CN(C)S(=O)(=O)c1ccccc1,"inconclusive: 0.326 µM [rising, full curve, poor fit]"
23,CCc1ccc(C(=O)NNC(=O)OC)cc1,inactive
24,CCCCn1c(N)c(N(CC(C)C)C(=O)C2CC(=O)N(Cc3ccco3)C2)c(=O)[nH]c1=O (stereo unspecified),inactive

# Among those listed so far, 5 contain a furan ring, fused or not:
row,Compound,Potency
20,COc1ccc(-c2csc(NC(=S)NC(=O)c3ccco3)n2)cc1Br,"inconclusive: 29.1 µM [cytotoxic, single point]"
1,COc1ccc(NC(=O)Cn2c(=O)n(Cc3ccco3)c(=O)c3sc4ccccc4c32)cc1Cl,inactive
2,Cn1c(=O)cc(OCCCC(=O)NCc2ccco2)c2ccccc21,"inconclusive: 23.1 µM [cytotoxic, partial curve]"
20,CN(Cc1ccccc1)C(=O)c1ccccc1NC(=O)c1ccco1,"inconclusive: 10.3 µM [cytotoxic, partial curve]"
24,CCCCn1c(N)c(N(CC(C)C)C(=O)C2CC(=O)N(Cc3ccco3)C2)c(=O)[nH]c1=O (stereo unspecified),inactive

# The results go on.

row,Compound,Potency
1,O=C(Cc1ccc(Cl)c(Cl)c1)Nc1cccc2ncccc12,"inconclusive: 14.6 µM [cytotoxic, partial curve, poor fit]"
2,C[C@H](CO)N1C[C@H](C)[C@H](CN(C)S(=O)(=O)c2ccccc2F)OCc2cnnn2CCCC1=O,inactive
3,c1ccc(-c2noc(CN3CCCC(OCc4ccccn4)C3)n2)cc1 (stereo unspecified),inactive
4,CCC(C)c1ccc(S(=O)(=O)N2CC(=O)Nc3ccccc32)cc1 (stereo unspecified),"inconclusive: 18.4 µM [cytotoxic, single point]"
5,O=C(Nc1ccc(Cl)cc1Cl)c1cccc(N2C(=O)C=CC2=O)c1,inactive
6,O=C(Nc1cccc(S(=O)(=O)N2CCCCC2)c1)c1ccc([N+](=O)[O-])o1,"inconclusive: 16.4 µM [cytotoxic, single point]"
7,CNc1ncnc2c1ncn2[C@H]1CN(Cc2cccnc2)C[C@@H](CO)O1,inactive
8,COc1ccc(N2CCN(CCCn3cnc4c(SC)ncnc43)CC2)cc1,"inconclusive: 11.6 µM [cytotoxic, partial curve]"
9,CCOC(=O)c1c(NC(=O)CC2SC(N)=NC2=O)sc2c1CCC(C)C2 (stereo unspecified),"inconclusive: 16.4 µM [cytotoxic, partial curve, poor fit]"
10,Clc1cccc(Cc2c(-c3cccc(Br)c3)nc3c4ccccc4ccn23)c1,"inconclusive: 23.1 µM [cytotoxic, single point]"
11,COc1ccc(-c2ccc3nccn3c2)cc1,"inconclusive: 29.1 µM [cytotoxic, single point]"
12,CC1CCN(CCCNC(=O)c2cc3sccc3n2C)CC1,"inconclusive: 9.2 µM [cytotoxic, partial curve]"
13,C/C(=N/NC(=O)c1cc(C2CC2)[nH]n1)c1cccs1,"inconclusive: 20.6 µM [cytotoxic, single point]"
14,CCCCC(=O)N(C)c1c(C)nc2ccc(C(=O)Nc3cccc(OC)c3)cn12,inactive
15,COC(=O)c1c(NC(NC(=O)C(C)C)C(Cl)(Cl)Cl)sc2c1CCC2 (stereo unspecified),inactive
16,COc1ccc(-c2nc3scc(-c4ccccc4)n3n2)cc1,active: 18.4 µM
17,CCOC(=O)C1(C)CCCN(C(=O)c2ccc(OC)cc2OC)C1 (stereo unspecified),inactive
18,CCCn1nnc(NC(=O)C(c2ccccc2)c2ccccc2)n1,active: 18.4 µM
19,CCOC(=O)c1cnc(SCC(=O)NCc2cccs2)nc1N,inactive
20,Cc1sc(NC(=O)c2ccccc2F)c(CN2CCCCC2)c1C,"inconclusive: 11.6 µM [cytotoxic, partial curve]"
21,CCOc1ccccc1CNC(=O)CC(C)n1ccc(C)n1 (stereo unspecified),inactive
22,O=C(NCc1nc2ccccc2[nH]1)C1=C[C@@H](c2ccc(C(F)(F)F)cc2)C[C@@H](OCc2ccc(CO)cc2)O1,"inconclusive: 25.9 µM [cytotoxic, partial curve, poor fit]"
23,COc1nccnc1NS(=O)(=O)c1ccc(NC(=S)NC(=O)c2cccc(F)c2)cc1,"inconclusive: 23.1 µM [cytotoxic, partial curve, poor fit]"
